The values below come from doi:10.1101/2020.08.14.246132.

In the assay the target is T1, Full-length human NLRP1 with a C-terminal FLAG tag (NLRP1-FLAG), wild type (human), Q9C000.
T1 chain: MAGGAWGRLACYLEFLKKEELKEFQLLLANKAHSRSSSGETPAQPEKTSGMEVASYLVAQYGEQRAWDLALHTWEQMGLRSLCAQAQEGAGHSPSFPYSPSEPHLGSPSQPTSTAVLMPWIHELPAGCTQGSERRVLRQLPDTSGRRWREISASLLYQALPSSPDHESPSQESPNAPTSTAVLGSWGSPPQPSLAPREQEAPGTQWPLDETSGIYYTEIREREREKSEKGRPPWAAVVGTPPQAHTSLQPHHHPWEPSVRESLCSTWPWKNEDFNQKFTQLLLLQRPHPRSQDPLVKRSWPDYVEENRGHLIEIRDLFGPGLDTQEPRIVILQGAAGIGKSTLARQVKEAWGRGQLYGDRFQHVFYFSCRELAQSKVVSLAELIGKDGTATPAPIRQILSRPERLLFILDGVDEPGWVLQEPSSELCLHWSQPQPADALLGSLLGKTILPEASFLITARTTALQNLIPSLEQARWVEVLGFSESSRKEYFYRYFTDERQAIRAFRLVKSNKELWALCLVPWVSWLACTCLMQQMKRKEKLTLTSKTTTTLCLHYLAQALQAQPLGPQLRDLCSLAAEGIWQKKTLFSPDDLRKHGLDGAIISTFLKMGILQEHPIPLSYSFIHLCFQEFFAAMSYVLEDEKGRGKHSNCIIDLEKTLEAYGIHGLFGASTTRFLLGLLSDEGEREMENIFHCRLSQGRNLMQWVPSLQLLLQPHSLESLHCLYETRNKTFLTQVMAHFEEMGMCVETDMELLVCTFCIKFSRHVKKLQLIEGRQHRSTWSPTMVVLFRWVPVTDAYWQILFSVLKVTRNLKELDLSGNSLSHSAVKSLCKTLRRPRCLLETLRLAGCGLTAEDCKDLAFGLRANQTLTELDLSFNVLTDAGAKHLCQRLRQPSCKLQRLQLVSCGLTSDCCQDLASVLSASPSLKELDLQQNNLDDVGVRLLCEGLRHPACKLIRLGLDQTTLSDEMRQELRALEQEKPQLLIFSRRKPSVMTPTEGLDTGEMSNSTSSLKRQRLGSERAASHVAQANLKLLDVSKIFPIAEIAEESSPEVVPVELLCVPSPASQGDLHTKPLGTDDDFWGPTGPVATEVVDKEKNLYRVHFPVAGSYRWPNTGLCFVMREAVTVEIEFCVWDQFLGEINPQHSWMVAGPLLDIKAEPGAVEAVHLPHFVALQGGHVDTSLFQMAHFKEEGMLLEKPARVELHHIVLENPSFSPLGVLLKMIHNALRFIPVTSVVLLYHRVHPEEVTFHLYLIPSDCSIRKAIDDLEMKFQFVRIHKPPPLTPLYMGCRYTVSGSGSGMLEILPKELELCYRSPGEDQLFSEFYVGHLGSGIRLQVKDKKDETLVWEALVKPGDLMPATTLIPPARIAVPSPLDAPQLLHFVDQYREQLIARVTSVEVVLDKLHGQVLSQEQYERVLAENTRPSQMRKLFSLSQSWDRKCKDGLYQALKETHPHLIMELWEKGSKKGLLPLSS
Briefly: co-IP. The note with it: remark: other sources report otherwise.

No constants are given. Whether binding was seen depends on the method and setting. In cells and extracts the contact can be indirect. Some entries that bind do so weakly or less than the wild type. Where a sequence is shown, tags or fusion partners need not be part of it.

B1: DPP9, short isoform, N-terminal His tag (His-TEV-DPP9), wild type, for co-immunoprecipitation, Q86TI2-1 1-863 (enzyme)
chain: MATTGTPTADRGDAAATDDPAARFQVQKHSWDGLRSIIHGSRKYSGLIVNKAPHDFQFVQKTDESGPHSHRLYYLGMPYGSRENSLLYSEIPKKVRKEALLLLSWKQMLDHFQATPHHGVYSREEELLRERKRLGVFGITSYDFHSESGLFLFQASNSLFHCRDGGKNGFMVSPMKPLEIKTQCSGPRMDPKICPADPAFFSFINNSDLWVANIETGEERRLTFCHQGLSNVLDDPKSAGVATFVIQEEFDRFTGYWWCPTASWEGSEGLKTLRILYEEVDESEVEVIHVPSPALEERKTDSYRYPRTGSKNPKIALKLAEFQTDSQGKIVSTQEKELVQPFSSLFPKVEYIARAGWTRDGKYAWAMFLDRPQQWLQLVLLPPALFIPSTENEEQRLASARAVPRNVQPYVVYEEVTNVWINVHDIFYPFPQSEGEDELCFLRANECKTGFCHLYKVTAVLKSQGYDWSEPFSPGEDEFKCPIKEEIALTSGEWEVLARHGSKIWVNEETKLVYFQGTKDTPLEHHLYVVSYEAAGEIVRLTTPGFSHSCSMSQNFDMFVSHYSSVSTPPCVHVYKLSGPDDDPLHKQPRFWASMMEAASCPPDYVPPEIFHFHTRSDVRLYGMIYKPHALQPGKKHPTVLFVYGGPQVQLVNNSFKGIKYLRLNTLASLGYAVVVIDGRGSCQRGLRFEGALKNQMGQVEIEDQVEGLQFVAEKYGFIDLSRVAIHGWSYGGFLSLMGLIHKPQVFKVAIAGAPVTVWMAYDTGYTERYMDVPENNQHGYEAGSVALHVEKLPNEPNRLLILHGFLDENVHFFHTNFLVSQLIRAGKPYQLQIYPNERHSIRCPESGEHYEVTLLHFLQEYL
Take B1: the binding result was “binds”.
